The AC50 is the concentration giving half of the maximal activity seen.

The other results are listed elsewhere or left out. Shown are side measurements of this screen, not its main read-out; they come without a call. The list favours compounds with an active or inconclusive main result. The note in brackets gives the kind of curve behind each potency; many fits are weak.

The values that follow come from PubChem BioAssay AID662 (National Center for Advancing Translational Sciences (NCATS), 2007).

The assay can be described thus: Cell signaling CRE-BLA (Fsk stim). The following applies: CHO CRE-bla reporter (cAMP response element driving beta-lactamase), forskolin EC10, beta-lactamase ratio; measured here: 460 nm blue channel. The gist of the method: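 CHO CRE-bla cells, overnight plating in Opti-MEM with 0.5% dialyzed FBS; cpd titration + EC10 NKH 477, 3 h 37 °C; CCF4 2 h RT; ex 405/em 460 vs 530 ratio → %Activity, AC50.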
On to `CCn1c(=O)cc(O)c2ccccc21`, for which the AC50 was 12.6 µM [rising, partial curve].
Consider `Cn1c(-c2ccc3nc(N)sc3c2)nc2cc(N)ccc21`, for which the AC50 was 25.1 µM [falling, single point].
With `CCS(=O)(=O)N1Cc2ccccc2CC1C(=O)N1CCN(c2cccc(C)c2C)CC1` (centres undefined), the AC50 is 1 µM [falling, full curve].
Turning to `N#C/C(=C/c1ccc(N2CCCCCC2)o1)c1ccc(F)cc1`, the AC50 is 25.1 µM [falling, single point].
Take `Nc1nc(Nc2ccccc2Br)nc(C(F)(F)F)n1`: the AC50 was 7.94 µM [rising, partial curve].
As for `CC(NC(=O)c1ccco1)C(c1cccs1)N1CCN(c2ccccc2)CC1` (centres undefined), the AC50 is 31.6 µM [falling, single point].
`COc1ccc(CNc2cc(-c3ccccc3OC)ncn2)c(OC)c1`: the AC50 was 12.6 µM [rising, partial curve, poor fit].
On to `Cc1cc(C)c2c(n1)nn1c(-n3ccnc3)cc(C)nc21`, for which the AC50 was 12.6 µM [rising, partial curve].
The value for `Cc1ccc(S(=O)(=O)N2CCCC2C(=O)NCCc2nc3ccccc3[nH]2)cc1` (centres undefined) was 10 µM [rising, partial curve]; that for `NS(=O)(=O)c1ccc(N=Nc2c(O)c(C(=O)O)cc3ccccc23)cc1` was 1.58 µM [falling, partial curve]; that for `Cc1ccc(-c2nc(C)sc2CC(=O)NCc2ccco2)cc1` was 7.94 µM [falling, partial curve].
As for `Cc1ccc(C(=O)COC(=O)CNC(=O)c2ccco2)cc1`, the AC50 was 25.1 µM [falling, single point].
For `Cc1cc(C)c(-c2cc(NC(=O)CSc3nncn3C)n(-c3ccccc3)n2)cc1C`, the half-maximal activity concentration (AC50) is 5.01 µM [falling, single point].
For `COc1ccc(-c2c3c(=O)n(C)c(=O)n(C)c3cn2-c2ccccc2)cc1` the value was 0.251 µM [falling, full curve]; for `COC(=O)c1cccc(CSc2nnc(-c3ccco3)n2-c2ccccc2)c1`, 12.6 µM [rising, partial curve]; for `Cc1ccc(-c2nc3cnccn3c2Nc2ccccc2)o1`, 10 µM [rising, single point].
As to `O=C(O)c1cc2c([nH]c1=O)CCCC2`, the AC50 was 0.631 µM [falling, single point].
Turning to `Cc1cc(C)n(-c2ncnc3c2oc2ccccc23)n1`, the AC50 was 12.6 µM [rising, single point].
Consider `O=C(CC1CCCCC1)c1c(O)c2ccccc2oc1=O`, for which the AC50 was 25.1 µM [falling, single point].
Regarding `O=C(CSC1=NS(=O)(=O)c2ccccc21)Nc1ccccc1`, the AC50 is 12.6 µM [falling, partial curve].
Consider `CC(=O)N1CCC2(CCCN(c3cccc(-c4ccccc4)c3)C2)CC1`, for which the AC50 was 25.1 µM [falling, single point].
For `COC(=O)CCP(=O)(O)Cc1ccccc1CP(=O)(O)CCC(=O)OC`, the AC50 was 6.31 µM [falling, partial curve].
Turning to `O=C(CNC(=O)c1ccccc1)NC1(C(=O)NC2CCCC2)CCCCC1`, the AC50 is 0.0251 µM [falling, full curve, poor fit].
In the case of `COc1cc(S(=O)(=O)N2CCOCC2)ccc1NC(=O)c1cc2c(s1)CCC2`, the AC50 was 10 µM [rising, single point].
For `CN(C)CCCn1cc(C2=C(c3c[nH]c4ccccc34)C(=O)NC2=O)c2ccccc21` the value was 15.8 µM [falling, partial curve].
Regarding `Cc1cc(C)n2nc(C(=O)OCCOc3ccc(F)cc3)nc2n1`, the AC50 is 25.1 µM [rising, single point].
As to `O=C(CSc1ccc2nnc(-c3ccccn3)n2n1)N1CCN(c2ccccc2)CC1`, the AC50 was 10 µM [rising, partial curve].
The value for `Cc1ccccc1NS(=O)(=O)c1ccc2[nH]cc(C(=O)N(C)Cc3ccco3)c(=O)c2c1` was 7.94 µM [falling, partial curve]; that for `COCCCNC(=O)c1cn(C)c(=O)c2cc(OC)c(OC)cc12` was 10 µM [rising, partial curve].
On to `Cc1c(OCc2ccc(C(=O)O)o2)ccc2c3c(c(=O)oc12)CCC3`, for which the AC50 was 1 µM [falling, partial curve].
The value for `COC(=O)C1=CN(CCCN2CCCC2=O)C=C(C(=O)OC)C1c1ccccc1C(F)(F)F` was 12.6 µM [rising, partial curve]; that for `CCOc1cc(C2C(C(=O)OC)=CN(C3CCCC3)C=C2C(=O)OC)cc(Br)c1O` was 2.51 µM [rising, full curve].
For `O=C(CS(=O)(=O)Cc1ccccc1)NCC1CCCO1` (centres undefined) the value was 12.6 µM [rising, single point]; for `COc1ccc(OC)c(NC(=O)c2ccc(NS(=O)(=O)c3c(C)noc3C)cc2)c1`, 10 µM [rising, single point].
The value for `CCCc1c(C(=O)OCC)[nH]c2c1C(=O)CCC2` was 12.6 µM [rising, single point].
For `CC(C)CNc1oc(-c2ccc(F)cc2)nc1C#N`, the AC50 was 5.01 µM [rising, partial curve].
For `Cc1ccccc1-n1c(=O)cc(N2CCN(Cc3ccccc3)CC2)[nH]c1=O` the value was 10 µM [rising, partial curve].
`COc1cc(=O)n(C)c2c(OC[C@@H](O)C(C)(C)O)cccc12`: the AC50 is 15.8 µM [rising, partial curve].
Turning to `CC(C)c1nc(SCC(=O)NCc2ccccc2)n[nH]1`, the AC50 was 5.01 µM [falling, single point].
The value for `COc1cc2c(cc1OC)C1=C(C#N)COCN1CC2` was 1 µM [rising, full curve]; that for `O=c1cc(-c2ccc(Cl)c(Cl)c2)[nH][nH]1` was 0.00398 µM [falling, full curve, poor fit].
Consider `CC1(C)CC(=O)C2=C(C1)OC(N)=C(C#N)C2c1cccc(OC(=O)c2ccco2)c1` (centres undefined), for which the AC50 is 7.94 µM [rising, partial curve].
The value for `Cc1cccc(CSC2=NCCN2C(=O)c2ccc(Br)o2)c1` was 10 µM [rising, partial curve]; that for `O=C(CSc1nnc(-c2cnccn2)n1Cc1ccco1)Nc1ccc(Br)cc1` was 0.00316 µM [falling, full curve, poor fit].
